This is one part of the list.

Protein sequences, listed by entry. Tags and fused reporters are not part of them. Lines headed by an entry give the natural chain unless they say otherwise; changes in a name come on top.
UniProt P43121, whole entry, looked up: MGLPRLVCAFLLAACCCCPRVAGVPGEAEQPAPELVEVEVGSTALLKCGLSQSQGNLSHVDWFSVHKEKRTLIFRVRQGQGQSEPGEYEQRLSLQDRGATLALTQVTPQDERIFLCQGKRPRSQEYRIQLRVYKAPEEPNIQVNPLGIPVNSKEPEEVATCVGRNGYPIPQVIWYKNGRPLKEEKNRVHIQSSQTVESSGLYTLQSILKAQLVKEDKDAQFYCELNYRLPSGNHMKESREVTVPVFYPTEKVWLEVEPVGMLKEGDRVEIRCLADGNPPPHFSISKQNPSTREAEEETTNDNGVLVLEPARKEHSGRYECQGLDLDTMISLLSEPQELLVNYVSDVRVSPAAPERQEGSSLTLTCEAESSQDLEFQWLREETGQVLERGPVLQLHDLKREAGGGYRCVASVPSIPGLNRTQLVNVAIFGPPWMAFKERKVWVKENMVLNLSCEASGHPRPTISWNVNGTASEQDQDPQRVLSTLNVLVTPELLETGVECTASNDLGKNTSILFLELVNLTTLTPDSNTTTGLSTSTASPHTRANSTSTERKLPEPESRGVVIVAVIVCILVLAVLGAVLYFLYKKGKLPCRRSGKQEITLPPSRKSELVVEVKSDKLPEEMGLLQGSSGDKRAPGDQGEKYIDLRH
UniProt Q9UBP6: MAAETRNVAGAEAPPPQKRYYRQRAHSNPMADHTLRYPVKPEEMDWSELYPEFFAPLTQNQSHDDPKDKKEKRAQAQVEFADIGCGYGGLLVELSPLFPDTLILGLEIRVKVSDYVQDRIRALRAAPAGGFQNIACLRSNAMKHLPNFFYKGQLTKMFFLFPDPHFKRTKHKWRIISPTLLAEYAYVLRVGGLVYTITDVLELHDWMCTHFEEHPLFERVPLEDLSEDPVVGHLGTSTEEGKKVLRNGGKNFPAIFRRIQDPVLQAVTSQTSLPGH
UniProt P25205: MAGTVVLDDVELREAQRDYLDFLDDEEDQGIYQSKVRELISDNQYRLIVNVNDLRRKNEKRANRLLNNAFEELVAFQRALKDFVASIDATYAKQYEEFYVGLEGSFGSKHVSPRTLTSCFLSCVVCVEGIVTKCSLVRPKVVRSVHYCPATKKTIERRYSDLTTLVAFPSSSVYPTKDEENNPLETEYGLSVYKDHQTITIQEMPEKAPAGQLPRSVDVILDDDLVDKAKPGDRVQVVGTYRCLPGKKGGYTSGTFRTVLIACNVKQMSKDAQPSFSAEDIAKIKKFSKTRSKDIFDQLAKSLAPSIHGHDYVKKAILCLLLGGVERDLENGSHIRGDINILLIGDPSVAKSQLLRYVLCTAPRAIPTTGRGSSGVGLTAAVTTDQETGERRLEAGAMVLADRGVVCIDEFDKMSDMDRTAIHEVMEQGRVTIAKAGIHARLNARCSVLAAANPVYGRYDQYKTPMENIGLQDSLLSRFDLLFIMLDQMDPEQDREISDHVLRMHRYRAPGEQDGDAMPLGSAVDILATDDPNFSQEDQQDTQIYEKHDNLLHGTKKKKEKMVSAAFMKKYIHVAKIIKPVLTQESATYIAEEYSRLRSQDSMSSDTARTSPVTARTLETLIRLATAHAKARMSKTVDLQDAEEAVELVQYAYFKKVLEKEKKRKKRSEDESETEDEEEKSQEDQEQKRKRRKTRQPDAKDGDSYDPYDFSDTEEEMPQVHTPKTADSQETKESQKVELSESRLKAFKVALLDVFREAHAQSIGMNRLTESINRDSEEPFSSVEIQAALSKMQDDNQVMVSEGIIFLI
UniProt Q9NWR8: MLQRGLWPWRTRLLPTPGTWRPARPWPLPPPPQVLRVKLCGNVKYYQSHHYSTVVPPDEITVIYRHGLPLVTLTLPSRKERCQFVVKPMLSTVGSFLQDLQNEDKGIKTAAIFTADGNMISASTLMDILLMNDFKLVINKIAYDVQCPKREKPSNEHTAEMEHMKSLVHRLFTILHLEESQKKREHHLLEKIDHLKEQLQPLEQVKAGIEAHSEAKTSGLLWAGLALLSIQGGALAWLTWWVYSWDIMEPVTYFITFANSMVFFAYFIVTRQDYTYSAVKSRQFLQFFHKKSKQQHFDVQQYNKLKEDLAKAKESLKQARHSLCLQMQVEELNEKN
UniProt Q14676: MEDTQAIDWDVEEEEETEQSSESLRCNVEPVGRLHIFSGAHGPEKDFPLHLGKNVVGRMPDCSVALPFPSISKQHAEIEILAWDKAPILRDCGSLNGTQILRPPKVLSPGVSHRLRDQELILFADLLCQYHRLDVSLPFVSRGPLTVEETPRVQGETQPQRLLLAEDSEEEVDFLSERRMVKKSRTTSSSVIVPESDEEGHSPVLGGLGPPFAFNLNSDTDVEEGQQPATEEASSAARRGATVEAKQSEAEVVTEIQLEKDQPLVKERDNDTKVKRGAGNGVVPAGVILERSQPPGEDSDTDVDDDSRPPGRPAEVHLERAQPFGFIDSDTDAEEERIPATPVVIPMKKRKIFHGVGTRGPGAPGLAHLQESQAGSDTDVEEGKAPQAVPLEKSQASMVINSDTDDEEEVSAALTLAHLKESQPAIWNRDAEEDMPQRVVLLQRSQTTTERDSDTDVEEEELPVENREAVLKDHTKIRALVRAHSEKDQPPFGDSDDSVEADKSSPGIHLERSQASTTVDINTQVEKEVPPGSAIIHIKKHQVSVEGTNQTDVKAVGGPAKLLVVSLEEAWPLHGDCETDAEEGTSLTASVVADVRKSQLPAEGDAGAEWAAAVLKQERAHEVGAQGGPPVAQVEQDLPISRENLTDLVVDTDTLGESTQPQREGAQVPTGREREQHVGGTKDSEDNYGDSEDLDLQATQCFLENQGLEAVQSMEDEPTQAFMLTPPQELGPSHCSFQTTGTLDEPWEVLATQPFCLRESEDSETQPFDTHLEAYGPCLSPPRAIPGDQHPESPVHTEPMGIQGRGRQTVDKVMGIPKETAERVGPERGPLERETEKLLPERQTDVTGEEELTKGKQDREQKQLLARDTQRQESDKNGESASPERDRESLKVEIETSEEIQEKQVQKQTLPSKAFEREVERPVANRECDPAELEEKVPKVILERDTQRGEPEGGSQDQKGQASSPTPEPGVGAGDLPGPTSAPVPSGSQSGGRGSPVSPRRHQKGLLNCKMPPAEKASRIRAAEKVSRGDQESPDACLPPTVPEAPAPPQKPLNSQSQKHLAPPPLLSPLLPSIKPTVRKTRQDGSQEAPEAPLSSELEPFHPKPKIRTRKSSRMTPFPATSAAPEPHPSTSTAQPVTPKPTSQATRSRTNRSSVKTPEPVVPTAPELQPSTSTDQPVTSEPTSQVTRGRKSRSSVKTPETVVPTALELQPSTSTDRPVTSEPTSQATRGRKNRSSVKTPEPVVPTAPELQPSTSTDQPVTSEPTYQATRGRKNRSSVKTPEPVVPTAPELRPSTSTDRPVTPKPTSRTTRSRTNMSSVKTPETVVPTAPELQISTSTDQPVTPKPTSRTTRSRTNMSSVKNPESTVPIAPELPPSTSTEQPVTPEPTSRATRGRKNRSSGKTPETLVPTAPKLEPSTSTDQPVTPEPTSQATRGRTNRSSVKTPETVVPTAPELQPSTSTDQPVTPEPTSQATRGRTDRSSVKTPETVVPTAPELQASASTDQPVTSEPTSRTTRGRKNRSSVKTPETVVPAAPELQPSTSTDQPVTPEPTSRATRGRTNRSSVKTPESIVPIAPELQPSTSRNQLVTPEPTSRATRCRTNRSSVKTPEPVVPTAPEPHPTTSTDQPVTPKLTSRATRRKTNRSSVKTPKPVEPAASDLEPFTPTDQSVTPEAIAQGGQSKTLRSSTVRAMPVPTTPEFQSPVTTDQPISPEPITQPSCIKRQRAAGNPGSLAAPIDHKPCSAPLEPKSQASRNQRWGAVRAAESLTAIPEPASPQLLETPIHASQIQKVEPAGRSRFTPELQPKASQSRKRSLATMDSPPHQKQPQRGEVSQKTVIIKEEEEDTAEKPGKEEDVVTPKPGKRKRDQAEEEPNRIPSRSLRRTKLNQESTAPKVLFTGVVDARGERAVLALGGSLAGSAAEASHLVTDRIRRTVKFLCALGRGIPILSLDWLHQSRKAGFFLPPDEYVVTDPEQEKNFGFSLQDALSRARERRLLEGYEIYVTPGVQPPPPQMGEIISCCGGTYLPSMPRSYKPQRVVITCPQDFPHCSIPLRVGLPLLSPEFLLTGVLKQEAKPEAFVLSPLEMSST
UniProt Q8IWA4: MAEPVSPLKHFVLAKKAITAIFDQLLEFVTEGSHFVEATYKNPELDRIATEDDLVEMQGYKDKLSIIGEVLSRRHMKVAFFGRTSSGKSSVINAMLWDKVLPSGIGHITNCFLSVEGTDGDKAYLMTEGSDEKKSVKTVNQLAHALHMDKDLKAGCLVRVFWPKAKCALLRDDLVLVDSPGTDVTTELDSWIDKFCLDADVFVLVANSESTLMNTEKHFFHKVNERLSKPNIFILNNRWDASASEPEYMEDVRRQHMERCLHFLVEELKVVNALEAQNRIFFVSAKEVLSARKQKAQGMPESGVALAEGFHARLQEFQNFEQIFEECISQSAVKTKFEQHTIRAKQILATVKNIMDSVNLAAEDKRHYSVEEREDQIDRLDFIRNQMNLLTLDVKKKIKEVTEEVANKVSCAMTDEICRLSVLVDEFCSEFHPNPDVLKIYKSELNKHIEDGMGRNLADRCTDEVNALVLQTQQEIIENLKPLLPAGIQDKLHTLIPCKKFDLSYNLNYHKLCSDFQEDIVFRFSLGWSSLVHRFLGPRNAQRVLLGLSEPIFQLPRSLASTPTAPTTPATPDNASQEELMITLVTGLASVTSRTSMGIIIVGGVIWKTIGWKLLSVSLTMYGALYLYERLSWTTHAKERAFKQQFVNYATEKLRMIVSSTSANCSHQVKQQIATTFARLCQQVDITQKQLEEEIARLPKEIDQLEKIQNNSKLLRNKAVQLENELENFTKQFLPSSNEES
UniProt P31153, whole entry, looked up: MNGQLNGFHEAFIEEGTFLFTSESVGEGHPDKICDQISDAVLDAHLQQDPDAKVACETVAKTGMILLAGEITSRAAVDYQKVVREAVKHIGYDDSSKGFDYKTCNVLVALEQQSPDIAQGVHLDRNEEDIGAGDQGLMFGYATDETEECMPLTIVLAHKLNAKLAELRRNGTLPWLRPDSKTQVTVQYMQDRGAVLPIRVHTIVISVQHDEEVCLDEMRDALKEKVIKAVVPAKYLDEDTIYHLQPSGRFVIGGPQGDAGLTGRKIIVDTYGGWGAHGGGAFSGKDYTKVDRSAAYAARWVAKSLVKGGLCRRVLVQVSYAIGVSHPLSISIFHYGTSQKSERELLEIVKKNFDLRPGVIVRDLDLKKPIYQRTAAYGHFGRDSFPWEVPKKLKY
UniProt Q9Y316: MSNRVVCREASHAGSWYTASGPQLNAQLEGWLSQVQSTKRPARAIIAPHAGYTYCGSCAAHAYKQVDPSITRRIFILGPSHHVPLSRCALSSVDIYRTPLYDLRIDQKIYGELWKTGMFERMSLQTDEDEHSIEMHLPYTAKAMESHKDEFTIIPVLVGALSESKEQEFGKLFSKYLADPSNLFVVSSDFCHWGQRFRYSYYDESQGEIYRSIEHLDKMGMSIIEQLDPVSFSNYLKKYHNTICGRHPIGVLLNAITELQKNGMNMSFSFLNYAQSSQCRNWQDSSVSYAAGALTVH
UniProt Q96RN5: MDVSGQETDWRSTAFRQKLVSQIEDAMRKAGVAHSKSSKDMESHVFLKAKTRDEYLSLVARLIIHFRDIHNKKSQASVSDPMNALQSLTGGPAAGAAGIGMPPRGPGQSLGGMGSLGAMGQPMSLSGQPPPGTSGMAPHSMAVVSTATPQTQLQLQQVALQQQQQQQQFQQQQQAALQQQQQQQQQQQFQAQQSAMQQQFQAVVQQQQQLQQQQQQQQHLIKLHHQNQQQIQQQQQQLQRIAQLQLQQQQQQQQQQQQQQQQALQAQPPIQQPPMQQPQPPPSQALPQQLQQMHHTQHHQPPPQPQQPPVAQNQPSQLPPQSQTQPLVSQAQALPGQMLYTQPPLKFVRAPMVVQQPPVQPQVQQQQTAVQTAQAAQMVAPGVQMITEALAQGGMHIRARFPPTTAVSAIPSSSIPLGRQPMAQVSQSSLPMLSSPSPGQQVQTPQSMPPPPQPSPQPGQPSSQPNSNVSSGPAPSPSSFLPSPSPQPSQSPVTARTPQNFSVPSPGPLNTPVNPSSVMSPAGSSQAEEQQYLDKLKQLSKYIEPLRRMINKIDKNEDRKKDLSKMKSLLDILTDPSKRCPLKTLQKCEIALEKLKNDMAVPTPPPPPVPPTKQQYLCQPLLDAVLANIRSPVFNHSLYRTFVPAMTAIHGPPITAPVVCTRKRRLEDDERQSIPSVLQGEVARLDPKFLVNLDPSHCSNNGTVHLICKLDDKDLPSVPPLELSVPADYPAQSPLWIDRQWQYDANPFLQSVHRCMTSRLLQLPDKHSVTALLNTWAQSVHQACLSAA
UniProt Q8NI22: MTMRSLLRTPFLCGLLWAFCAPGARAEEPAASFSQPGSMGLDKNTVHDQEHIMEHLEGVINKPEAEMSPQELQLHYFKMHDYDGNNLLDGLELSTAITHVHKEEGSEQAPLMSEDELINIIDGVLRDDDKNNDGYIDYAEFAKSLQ

Compound in the first test: CC(C)(O)CC(=O)NCCn1ccc2ncnc(Nc3ccc(Oc4cccc(C(F)(F)F)c4)c(Cl)c3)c21
The test is described as follows: log2 fold change, soluble protein after heating vs DMSO (PISA); higher = thermal stabilisation; K562 cells, 10 uM, 30 min; active = over 0.2 and 3.5 SD of the protein, either way, in both replicates (recomputed). In short, it runs like this:
(§1)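 K562 cells at 2×10^6 cells/mL were exposed to 10 μM compound for 30 min, then aliquots were heated for 3 min across 48°C-58°C, pooled, and extracted in PBS containing 0.5% NP-40 at 4°C. The supernatant after 21,000xg for 90 min was taken as soluble protein and measured by TMTpro 16plex LC-MS/MS with channel sums equalised. Thermal stability is reported relative to control samples, with values from duplicates. Fold changes are given on a log2 scale.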
Regarding MGAT4B isoform 3 (UniProt Q9UQ53), the log2 fold change was inactive: -0.031.
Still for that read-out and setting: as for MBNL1 (UniProt Q9NR56), the figure is inactive: 0.014.
The same measure, in the same setting: as for MEF2D (UniProt Q14814), the figure is inactive: -0.003.
As to MFSD10 (UniProt Q14728), the log2 fold change was inactive: 0.024.
With MCAM (UniProt P43121), the log2 fold change is inactive: 0.033.
Regarding METTL1 (UniProt Q9UBP6), the log2 fold change was inactive: -0.015.
Still for that read-out and setting: as for MECP2 isoform 2 (UniProt P51608), the figure is inactive: 0.
The same measure, in the same setting: as for MCM2 (UniProt P49736), the figure is inactive: -0.066; as for MCM3 isoform 2 (UniProt P25205), inactive: -0.009.
Still for that read-out and setting: as for METTL21A (UniProt Q8WXB1), the figure is inactive: 0.01; as for MDN1 (UniProt Q9NU22), inactive: -0.24; as for MGAT1 (UniProt P26572), inactive: 0.078.
As to METAP1D (UniProt Q6UB28), the log2 fold change was inactive: -0.032.
As to MED20 (UniProt Q9H944), the log2 fold change is inactive: -0.025.
The same measure, in the same setting: as for METTL14 (UniProt Q9HCE5), the figure is inactive: -0.015; as for MEAK7 (UniProt Q6P9B6), inactive: -0.018; as for MCRIP1 (UniProt I3L4Q0), inactive: 0.
Same read-out and setting: as for MCM5 (UniProt P33992), the figure is inactive: -0.04; as for MCUB (UniProt Q9NWR8), inactive: -0.135.
As to MED22 (UniProt Q15528), the log2 fold change was inactive: 0.039.
Same read-out and setting: as for ME2 (UniProt P23368), the figure is inactive: 0.036.
Still for that read-out and setting: as for MBOAT1 (UniProt Q6ZNC8), the figure is inactive: -0.034; as for MDC1 (UniProt Q14676), inactive: 0.122; as for MCMBP (UniProt Q9BTE3), inactive: -0.102.
Consider MATR3 (UniProt P43243), for which the log2 fold change is inactive: 0.008.
Still for that read-out and setting: as for MFN1 (UniProt Q8IWA4), the figure is inactive: -0.043; as for MAST4 (UniProt O15021), inactive: -0.091.
As for MED18 (UniProt Q9BUE0), the log2 fold change was inactive: -0.155.
The same measure, in the same setting: as for MAT2A (UniProt P31153), the figure is inactive: 0.017.
The same measure, in the same setting: as for MAVS (UniProt Q7Z434), the figure is inactive: -0.027.
Take MEMO1 (UniProt Q9Y316): the log2 fold change is inactive: -0.03.
Still for that read-out and setting: as for MGST3 (UniProt O14880), the figure is inactive: 0.041; as for MED15 (UniProt Q96RN5), inactive: 0.003.
For MCFD2 (UniProt Q8NI22), the log2 fold change is inactive: -0.294.
Take MARS2 (UniProt Q96GW9): the log2 fold change is inactive: 0.008.
Same read-out and setting: as for MED14 (UniProt O60244), the figure is inactive: -0.07; as for MFGE8 (UniProt Q08431), inactive: 0.105; as for MCTS1 isoform 3 (UniProt Q9ULC4), inactive: 0.
Turning to MCM6 (UniProt Q14566), the log2 fold change is inactive: -0.005.

Compound in another test: CC(C)C1=C2N=C(C=C(N2N=C1)NCC3=CC=CC=C3)NCCCCCCN
The test is described as above. In short, it runs like this:
as §1
For MGAT4B isoform 3 (UniProt Q9UQ53), the log2 fold change is inactive: -0.042.
As to MBNL1 (UniProt Q9NR56), the log2 fold change is inactive: 0.046.
Still for that read-out and setting: as for MEF2D (UniProt Q14814), the figure is inactive: 0.008; as for MFSD10 (UniProt Q14728), inactive: -0.016.
Same read-out and setting: as for MCAM (UniProt P43121), the figure is inactive: 0.183.
Turning to METTL1 (UniProt Q9UBP6), the log2 fold change was inactive: 0.056.
Still for that read-out and setting: as for MECP2 isoform 2 (UniProt P51608), the figure is inactive: -0.009; as for MCM2 (UniProt P49736), inactive: -0.088.
With MCM3 isoform 2 (UniProt P25205), the log2 fold change was inactive: 0.001.
Regarding METTL21A (UniProt Q8WXB1), the log2 fold change is inactive: 0.021.
With MDN1 (UniProt Q9NU22), the log2 fold change was inactive: -0.22.
The same measure, in the same setting: as for MGAT1 (UniProt P26572), the figure is inactive: 0.058; as for METAP1D (UniProt Q6UB28), inactive: 0.094.
Same read-out and setting: as for MED20 (UniProt Q9H944), the figure is inactive: -0.014; as for METTL14 (UniProt Q9HCE5), inactive: -0.015; as for MEAK7 (UniProt Q6P9B6), inactive: -0.2.
In the case of MCRIP1 (UniProt I3L4Q0), the log2 fold change is inactive: 0.055.
For MCM5 (UniProt P33992), the log2 fold change was inactive: -0.025.
Consider MCUB (UniProt Q9NWR8), for which the log2 fold change was inactive: -0.12.
The same measure, in the same setting: as for MED22 (UniProt Q15528), the figure is inactive: -0.016; as for ME2 (UniProt P23368), inactive: 0.152.
As to MBOAT1 (UniProt Q6ZNC8), the log2 fold change is inactive: -0.177.
In the case of MDC1 (UniProt Q14676), the log2 fold change is inactive: -0.321.
For the target MCMBP (UniProt Q9BTE3), the log2 fold change is inactive: -0.039.
Same read-out and setting: as for MATR3 (UniProt P43243), the figure is inactive: -0.02.
The same measure, in the same setting: as for MFN1 (UniProt Q8IWA4), the figure is active: -0.607.
Same read-out and setting: as for MAST4 (UniProt O15021), the figure is inactive: -0.085; as for MED18 (UniProt Q9BUE0), inactive: -0.031.
As for MAT2A (UniProt P31153), the log2 fold change is inactive: 0.062.
Still for that read-out and setting: as for MAVS (UniProt Q7Z434), the figure is inactive: 0.011; as for MEMO1 (UniProt Q9Y316), inactive: -0.011.
Consider MGST3 (UniProt O14880), for which the log2 fold change is inactive: 0.073.
As for MED15 (UniProt Q96RN5), the log2 fold change was inactive: 0.024.
MCFD2 (UniProt Q8NI22): the log2 fold change was inactive: 0.085.
On the same count and under the same terms, as for MARS2 (UniProt Q96GW9), the figure is inactive: 0.073; as for MED14 (UniProt O60244), inactive: -0.144.
Take MFGE8 (UniProt Q08431): the log2 fold change is inactive: 0.
With MCTS1 isoform 3 (UniProt Q9ULC4), the log2 fold change was inactive: 0.05.
On to MCM6 (UniProt Q14566), for which the log2 fold change was inactive: -0.063.

For the origin of these results see the supplement of paper PMC10849652.
